Source: publication doi:10.1101/2020.11.11.378323
Results are given in words; binding and its absence hold for the method and conditions named. For some of these results: A result given as binding can be weak or reduced; the word gives no strength.

The chains behind the UniProt entries cited, without tags or fusion partners.
UniProt P19538: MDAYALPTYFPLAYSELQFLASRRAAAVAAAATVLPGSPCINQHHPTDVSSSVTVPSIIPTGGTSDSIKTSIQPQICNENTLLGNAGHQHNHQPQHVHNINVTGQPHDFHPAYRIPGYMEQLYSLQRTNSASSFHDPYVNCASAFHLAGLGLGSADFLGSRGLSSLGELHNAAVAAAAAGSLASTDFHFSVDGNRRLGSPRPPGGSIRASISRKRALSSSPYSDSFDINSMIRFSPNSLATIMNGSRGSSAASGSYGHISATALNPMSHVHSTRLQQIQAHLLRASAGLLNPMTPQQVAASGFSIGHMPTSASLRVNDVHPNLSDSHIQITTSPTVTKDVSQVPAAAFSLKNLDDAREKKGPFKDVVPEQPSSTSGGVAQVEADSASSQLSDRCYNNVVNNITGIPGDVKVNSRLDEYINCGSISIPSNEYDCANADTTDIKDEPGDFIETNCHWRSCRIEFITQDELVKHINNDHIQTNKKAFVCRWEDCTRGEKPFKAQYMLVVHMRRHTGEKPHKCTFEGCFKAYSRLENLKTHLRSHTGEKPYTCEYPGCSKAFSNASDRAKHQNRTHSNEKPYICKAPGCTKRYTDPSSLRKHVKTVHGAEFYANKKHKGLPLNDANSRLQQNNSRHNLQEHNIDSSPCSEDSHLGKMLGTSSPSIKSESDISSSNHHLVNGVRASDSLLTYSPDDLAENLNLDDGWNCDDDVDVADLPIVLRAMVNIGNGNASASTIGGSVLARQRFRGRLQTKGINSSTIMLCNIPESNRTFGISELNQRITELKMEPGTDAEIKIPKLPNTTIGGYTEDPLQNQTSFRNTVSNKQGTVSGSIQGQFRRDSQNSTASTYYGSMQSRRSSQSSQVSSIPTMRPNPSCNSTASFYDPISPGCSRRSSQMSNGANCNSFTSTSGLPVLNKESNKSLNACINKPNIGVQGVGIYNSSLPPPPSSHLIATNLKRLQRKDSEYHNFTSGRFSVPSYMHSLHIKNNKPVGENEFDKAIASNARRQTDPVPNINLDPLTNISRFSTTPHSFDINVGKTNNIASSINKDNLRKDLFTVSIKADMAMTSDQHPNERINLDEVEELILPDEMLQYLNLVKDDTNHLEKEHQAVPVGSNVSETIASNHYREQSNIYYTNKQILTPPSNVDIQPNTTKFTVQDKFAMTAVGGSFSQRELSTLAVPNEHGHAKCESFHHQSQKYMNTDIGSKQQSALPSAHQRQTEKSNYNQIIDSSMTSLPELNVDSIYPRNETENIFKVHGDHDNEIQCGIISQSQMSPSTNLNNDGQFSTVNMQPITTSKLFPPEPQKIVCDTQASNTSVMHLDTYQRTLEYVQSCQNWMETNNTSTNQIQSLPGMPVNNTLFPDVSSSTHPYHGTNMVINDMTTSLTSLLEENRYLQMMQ
UniProt P23803: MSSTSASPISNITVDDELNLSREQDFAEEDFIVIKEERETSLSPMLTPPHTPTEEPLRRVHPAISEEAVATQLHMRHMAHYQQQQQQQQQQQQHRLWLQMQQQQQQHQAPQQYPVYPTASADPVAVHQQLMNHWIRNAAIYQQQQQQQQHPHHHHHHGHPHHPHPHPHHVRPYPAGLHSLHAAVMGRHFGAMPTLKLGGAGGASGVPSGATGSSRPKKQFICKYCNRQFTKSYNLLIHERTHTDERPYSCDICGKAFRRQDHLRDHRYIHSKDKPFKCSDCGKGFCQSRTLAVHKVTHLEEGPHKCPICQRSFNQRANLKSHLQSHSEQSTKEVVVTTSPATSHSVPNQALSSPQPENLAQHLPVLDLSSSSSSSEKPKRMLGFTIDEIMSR
UniProt P07247: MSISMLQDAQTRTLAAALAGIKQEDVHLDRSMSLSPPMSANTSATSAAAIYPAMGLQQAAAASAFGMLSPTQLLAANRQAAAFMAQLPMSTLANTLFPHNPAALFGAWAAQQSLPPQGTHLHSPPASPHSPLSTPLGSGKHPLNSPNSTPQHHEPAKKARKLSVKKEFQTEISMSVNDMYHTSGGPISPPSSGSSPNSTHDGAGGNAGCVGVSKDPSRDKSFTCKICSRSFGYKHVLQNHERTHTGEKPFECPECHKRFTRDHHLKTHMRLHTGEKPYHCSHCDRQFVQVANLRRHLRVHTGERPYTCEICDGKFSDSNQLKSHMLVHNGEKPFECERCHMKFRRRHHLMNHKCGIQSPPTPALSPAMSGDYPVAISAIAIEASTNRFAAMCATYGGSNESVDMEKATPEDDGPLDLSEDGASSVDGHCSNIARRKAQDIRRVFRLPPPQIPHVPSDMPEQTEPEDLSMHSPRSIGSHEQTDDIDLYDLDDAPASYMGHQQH

Legend:
Assay in all cases: two-hybrid
[1] = biological target: T1, male-specific lethal (MSL)1 (Drosophila) (UniProt P50535)
T1 sequence: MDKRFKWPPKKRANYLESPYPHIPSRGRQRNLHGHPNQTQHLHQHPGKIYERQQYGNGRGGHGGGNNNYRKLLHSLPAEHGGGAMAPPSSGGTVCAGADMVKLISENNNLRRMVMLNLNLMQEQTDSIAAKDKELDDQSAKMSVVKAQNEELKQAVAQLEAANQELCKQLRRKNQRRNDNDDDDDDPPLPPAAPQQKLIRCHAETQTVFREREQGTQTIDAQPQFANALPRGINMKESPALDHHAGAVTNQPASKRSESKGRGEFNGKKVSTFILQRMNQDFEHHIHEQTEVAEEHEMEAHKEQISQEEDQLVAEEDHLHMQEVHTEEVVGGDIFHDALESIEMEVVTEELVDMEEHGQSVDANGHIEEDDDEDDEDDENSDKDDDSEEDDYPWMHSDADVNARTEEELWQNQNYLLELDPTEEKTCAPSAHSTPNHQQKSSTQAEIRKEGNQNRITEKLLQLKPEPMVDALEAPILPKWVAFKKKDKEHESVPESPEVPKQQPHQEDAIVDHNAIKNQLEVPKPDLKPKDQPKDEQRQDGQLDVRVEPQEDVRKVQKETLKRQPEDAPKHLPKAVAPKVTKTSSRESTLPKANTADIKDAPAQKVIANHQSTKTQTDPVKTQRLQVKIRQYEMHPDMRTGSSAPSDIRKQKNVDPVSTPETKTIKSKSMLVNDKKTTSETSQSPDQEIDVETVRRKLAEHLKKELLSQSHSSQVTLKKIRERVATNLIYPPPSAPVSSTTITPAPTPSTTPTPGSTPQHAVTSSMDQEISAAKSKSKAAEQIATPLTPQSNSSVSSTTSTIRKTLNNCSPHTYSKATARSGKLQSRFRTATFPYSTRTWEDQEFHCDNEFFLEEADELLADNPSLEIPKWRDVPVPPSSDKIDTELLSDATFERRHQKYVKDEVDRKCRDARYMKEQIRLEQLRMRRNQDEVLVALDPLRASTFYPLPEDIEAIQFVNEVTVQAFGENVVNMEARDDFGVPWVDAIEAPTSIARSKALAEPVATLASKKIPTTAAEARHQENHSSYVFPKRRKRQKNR

[2] = biological target: T2, 178-aa N-terminal region of MSL1 (Drosophila) (UniProt P50535)
T2 sequence: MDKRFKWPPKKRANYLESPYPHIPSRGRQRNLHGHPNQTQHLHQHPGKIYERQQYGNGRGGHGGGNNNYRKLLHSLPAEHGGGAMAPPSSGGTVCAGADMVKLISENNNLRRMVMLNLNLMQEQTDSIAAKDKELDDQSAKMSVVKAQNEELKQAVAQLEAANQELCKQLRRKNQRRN

[3] = biological target: 178-aa N-terminal region of MSL1 with the N-terminal 15-aa region deleted (Drosophila) (UniProt P50535)

Substance	binding [2]	binding [3]	binding [1]
Row (Drosophila)	binds		binds
Ci (from UniProt P19538 1-1397)		no binding	
CG30020 (Drosophila)			binds
Jim (Drosophila)			binds

More lines, main results first:

binding [2]	binding [3]	Substance	binding [1]
	no binding	Odd (from UniProt P23803 1-392)	
	no binding	Kruppel (from UniProt P07247 1-502)	
